The source of these data is patent US20180258114.

Protein sequences, listed by entry. Tags and fused reporters are not part of them. Lines headed by an entry give the natural chain unless they say otherwise; changes in a name come on top.
UniProt P00970: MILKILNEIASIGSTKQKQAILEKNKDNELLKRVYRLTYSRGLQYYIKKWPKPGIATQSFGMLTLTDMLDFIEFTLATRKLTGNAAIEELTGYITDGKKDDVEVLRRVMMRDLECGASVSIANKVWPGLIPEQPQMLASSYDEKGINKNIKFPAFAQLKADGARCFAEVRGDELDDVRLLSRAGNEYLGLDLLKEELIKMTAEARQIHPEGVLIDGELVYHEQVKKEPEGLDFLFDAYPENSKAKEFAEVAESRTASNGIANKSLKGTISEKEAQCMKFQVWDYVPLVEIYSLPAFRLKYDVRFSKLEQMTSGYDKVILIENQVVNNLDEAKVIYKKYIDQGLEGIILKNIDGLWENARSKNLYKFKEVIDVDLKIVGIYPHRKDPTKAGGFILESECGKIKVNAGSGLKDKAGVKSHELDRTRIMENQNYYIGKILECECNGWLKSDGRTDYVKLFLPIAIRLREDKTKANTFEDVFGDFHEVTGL

The data set addresses T4 DNA ligase (UniProt P00970). Description: EMSA. To be noted: ATP, 37 C 24 h, purified recombinant protein.

As for TTTTTTTTTTCAATCACAACCA, the “activity on this sequence” value (on gold nanoparticle, terminal 3'-OH, ligation of linker-modified peptide and Cy3 to DNA-NP, agarose gel shift, presence of bridge strand not stated, single-stranded DNA) is “active”. Turning to “TTTTTTTTTTCAATCACAACCA / CGTCATCAACGATGGTTGTGATTG / TCGTTGATGACGCTAGCTAGAC [nicked anchor/bridge/mp-ligation DNA on gold nanoparticle]”, the “activity on this sequence” value (5' monophosphate linker on ligation strand, anchor on gold nanoparticle, ligation, 1% agarose gel shift of nanoparticle, strands as in FIG. 7) is reported as “active”.
